{
  "source": "patent US6114314A",
  "about": "(priority 1994, dated 2000)",
  "tested_on": "tumour",
  "note": "Like-named read-outs stand apart in the source and are kept apart here.",
  "data": [
    {"smiles": "CCO", "note": "[ethyl alcohol]", "values": [
      {"measurement": "dispersion of ethyl alcohol throughout the tumour", "setting": "carried by hyaluronic acid and/or salts thereof", "result": "dispersion of the ethyl alcohol throughout the tumour"},
      {"measurement": "dispersion of ethyl alcohol throughout the tumour", "setting": "injected directly, without hyaluronic acid", "result": "not dispersed throughout the tumour"}
    ]}
  ]
}
